Assay [1] has as its target AMOT (human (endogenous in HEK293)) (UniProt Q4VCS5). Put plainly: co-IP; HEK293 cells transfected with MAMDC4 or empty vector, or expressing control or MAMDC4 shRNA; NP-40 lysis buffer; lysates precipitated with rabbit anti AMOT on Protein G Dynabeads overnight at 4°C; immunoblot.
The target in another assay is T1, MAMDC4 (UniProt Q63191 22-1216).
T1 construct: HEK293 cells also hold endogenous (human) MAMDC4, which the anti-MAMDC4 antibody may precipitate as well; also called Endotubin; AEGP; source: HEK293, transfected (overexpressed), in lysate
Put plainly: co-IP; HEK293 cells overexpressing MAMDC4, control or 50% Wnt3a conditioned media for 6hrs; NP-40 lysis buffer; lysates precipitated with anti-MAMDC4 (hybridoma supernatant) or control IgG on Protein G Dynabeads overnight at 4°C; immunoblot; input 1/50th of lysate. On the technique in general: In western blotting, separated proteins are transferred to a membrane and probed.

Amino acid sequences for entries named in this document (tags omitted). Residues count along the entry.
UniProt Q63191, residues 22-1216: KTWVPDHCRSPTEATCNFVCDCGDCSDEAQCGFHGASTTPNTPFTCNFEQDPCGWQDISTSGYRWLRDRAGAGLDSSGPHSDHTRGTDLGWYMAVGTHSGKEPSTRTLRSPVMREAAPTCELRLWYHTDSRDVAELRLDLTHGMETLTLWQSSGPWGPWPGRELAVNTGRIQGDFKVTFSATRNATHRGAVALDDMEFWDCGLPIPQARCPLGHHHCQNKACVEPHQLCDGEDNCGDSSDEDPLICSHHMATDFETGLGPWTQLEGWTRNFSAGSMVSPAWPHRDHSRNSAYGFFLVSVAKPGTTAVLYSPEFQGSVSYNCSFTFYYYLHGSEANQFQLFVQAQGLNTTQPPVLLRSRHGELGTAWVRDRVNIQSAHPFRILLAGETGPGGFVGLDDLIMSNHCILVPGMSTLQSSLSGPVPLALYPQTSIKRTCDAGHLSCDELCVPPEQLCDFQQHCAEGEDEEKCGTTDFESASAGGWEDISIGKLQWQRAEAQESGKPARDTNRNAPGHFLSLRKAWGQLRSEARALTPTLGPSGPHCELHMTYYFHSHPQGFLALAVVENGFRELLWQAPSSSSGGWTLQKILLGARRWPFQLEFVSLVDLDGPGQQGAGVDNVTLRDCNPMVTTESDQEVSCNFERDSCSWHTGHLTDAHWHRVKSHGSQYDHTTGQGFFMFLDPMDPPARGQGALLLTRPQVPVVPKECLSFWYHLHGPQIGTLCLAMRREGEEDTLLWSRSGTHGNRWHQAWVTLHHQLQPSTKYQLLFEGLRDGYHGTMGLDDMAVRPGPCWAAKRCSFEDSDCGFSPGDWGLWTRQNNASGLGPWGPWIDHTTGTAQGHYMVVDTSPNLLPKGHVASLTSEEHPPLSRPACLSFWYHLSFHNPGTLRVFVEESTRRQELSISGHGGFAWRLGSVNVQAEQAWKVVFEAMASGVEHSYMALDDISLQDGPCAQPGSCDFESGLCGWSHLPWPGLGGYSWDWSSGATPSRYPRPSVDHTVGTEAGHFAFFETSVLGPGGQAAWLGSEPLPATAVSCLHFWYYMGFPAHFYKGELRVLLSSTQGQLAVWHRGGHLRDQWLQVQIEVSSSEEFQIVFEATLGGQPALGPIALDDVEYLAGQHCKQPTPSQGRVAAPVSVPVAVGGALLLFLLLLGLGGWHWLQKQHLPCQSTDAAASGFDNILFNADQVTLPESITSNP
UniProt O15169: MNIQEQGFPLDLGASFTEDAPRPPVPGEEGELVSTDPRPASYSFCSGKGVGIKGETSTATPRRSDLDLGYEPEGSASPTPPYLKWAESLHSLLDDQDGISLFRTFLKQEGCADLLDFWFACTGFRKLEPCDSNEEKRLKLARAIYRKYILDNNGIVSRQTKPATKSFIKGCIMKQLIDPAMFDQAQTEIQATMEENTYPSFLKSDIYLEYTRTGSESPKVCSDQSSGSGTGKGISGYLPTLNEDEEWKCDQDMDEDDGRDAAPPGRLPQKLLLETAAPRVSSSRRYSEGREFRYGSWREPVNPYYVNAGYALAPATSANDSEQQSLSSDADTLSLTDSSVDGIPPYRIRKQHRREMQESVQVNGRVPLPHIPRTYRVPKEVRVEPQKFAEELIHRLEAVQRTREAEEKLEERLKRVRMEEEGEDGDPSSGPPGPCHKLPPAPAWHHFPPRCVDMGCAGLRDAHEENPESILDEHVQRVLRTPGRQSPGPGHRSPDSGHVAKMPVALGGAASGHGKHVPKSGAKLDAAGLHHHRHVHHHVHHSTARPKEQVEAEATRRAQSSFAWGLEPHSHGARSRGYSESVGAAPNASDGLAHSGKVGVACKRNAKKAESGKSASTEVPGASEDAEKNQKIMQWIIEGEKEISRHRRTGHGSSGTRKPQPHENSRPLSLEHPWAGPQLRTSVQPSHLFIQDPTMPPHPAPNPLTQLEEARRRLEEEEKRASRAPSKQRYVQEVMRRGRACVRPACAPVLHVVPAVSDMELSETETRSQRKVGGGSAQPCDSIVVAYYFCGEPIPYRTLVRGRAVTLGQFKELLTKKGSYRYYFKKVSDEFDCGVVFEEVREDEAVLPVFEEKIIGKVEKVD

Results are given in words; binding and its absence hold for the method and conditions named. In cells and extracts the contact can be indirect. Some binding calls cover weakened binding; strength is not graded here.

For the substance β-catenin (from UniProt P35222 1-781), the binding entry (in assay [1]; with MAMDC4) was “binds” throughout.

Regarding Axin1 (from UniProt O15169 1-862), the binding result with MAMDC4 is on record as “binds”.

The record behind these values is article PMC11125477 (PLOS ONE, 2024).
